Results reported in US20150202321A1, “COMPOSITIONS COMPRISING CHITOSAN-DRUG CONJUGATES AND METHODS OF MAKING AND USING THE SAME” (NEWGEN BIOPHARMA CORP., priority 2012, published 2015).
Structures can show the parent of a compound that is named as a salt. Where two headings read alike, the source gives them in different places.

Key:
[1] = Acidic degradation studies (1 N HCl, 80° C.); format: physicochemical; details: 4 h time point
Method: Acidic degradation studies: Stability of the drug and the formulation in conditions simulating the gastric environment was determined by adding 10 µg of AT and CH-AT nano-conjugate to 10 mL of 1 N HCl and mixture was refluxed at 80° C. At designated time points, 3 mL of the sample was withdrawn and assayed for drug concentration by UHPLC method as described below.
UHPLC analysis: AT was analyzed by UHPLC with a Waters Acquity™ UPLC system (Serial No #F09 UPB 920 M; Model Code #UPB; Waters, MA, USA). Chromatographic separation was performed on an Acquity UPLC BEH C18 (100 mm×2.1 mm, 1.7 lm) column. The mobile phase was composed of 0.05 M NaH2PO4 buffer:methanol (30:70 (v/v)), adjusted to a pH of 5.1 and a flow rate of 1.0 mL/min. The detection wavelength was set at 247 nm and the retention time was 3.9 min. For the analysis of the samples from receptor solution, aliquots of 20 µL from each sample were injected via the manual injector into a HPLC system. Plasma samples were first extracted with ethyl acetate, vortexed and centrifuged at 10,000 rpm for 15 min. The supernatant was evaporated to dryness and the residue was reconstituted with the mobile phase. All the samples were filtered through a 0.11 μm pore size membrane filter before injection. The assay was linear (r^2=0.9995) in the concentration range of 0.01-50 μg/mL with a detection limit of 0.005 μg/mL. […]

[2] = In vivo pharmacokinetics after oral administration to rats; details: female, albino, rat, plasma, 5 mg AT per rat, 0.5 mL aqueous dispersion equivalent to 10 mg/mL AT, fasted 12 h
[3] = cited from earlier work

acidic degradation of drug [1]: complete drug degradation
Tmax [2]: 2 h
AUC(0-inf) ([2]; mean, n = 6): 11900 ng·h/mL
AUC(0-t) ([2]; mean, n = 6): 8240 ng·h/mL
Cmax ([2]; mean, n = 6): 583 ± 55.5 ng/mL
Compound: CC(C)c1c(C(=O)Nc2ccccc2)c(-c2ccccc2)c(-c2ccc(F)cc2)n1CC[C@@H](O)C[C@@H](O)CC(=O)O [AT, [R—(R/,R/)]-2-(4-fluorophenyl)-b,d-dihydroxy-5-(1-methylethyl)-3-phenyl-4-[(phenylamino)carbonyl]-1H-pyrrole-1-heptanoic acid, calcium salt (2:1) trihydrate]
reduction in AUC (extent of absorption) ([3]; administration with food): 9%
reduction in Cmax (rate of absorption) ([3]; administration with food): 25%
time to reach peak concentrations (tmax) ([3]; after oral administration): 1 to 2 h
reduction in AUC (extent of absorption) ([3]; evening dose administration): 30%
reduction in Cmax (rate of absorption) ([3]; evening dose administration): 30%
time to maximum plasma concentration (Tmax) ([3]; oral): 1 to 2 h
